The assay deals with BDF1 mice, P288 leukemia ip, survival T/C. The assay can be described thus: NCI In Vivo Anticancer Drug Screen. Data for tumor model P288 Lymphocytic Leukemia (intraperitoneal) in B6D2F1 (BDF1) mice. The settings on record: T/C endpoint: survival time, mean or median, higher T/C = longer survival. The procedure:
The antitumor activity of compounds was measured in mice bearing transplantable tumors. Survival or tumor size were measured and the results are expressed as the measurement made in the treated group (T) divided by the measurement made in the vehicle treated control group (C). The tumor model used in this assay is P288 Lymphocytic Leukemia (intraperitoneal) in B6D2F1 (BDF1) mice

[1] abbreviates: dose: 62.5 mg/kg/injection, schedule: Q01DX Z (ip), vehicle: carboxymethylcellulose (CMC).
The mark [2] stands for this setting: dose: 125.0 mg/kg/injection, schedule: Q01DX Z (ip), vehicle: carboxymethylcellulose (CMC).
[3] abbreviates: dose: 50.0 mg/kg/injection, schedule: Q01DX Z (ip), vehicle: carboxymethylcellulose (CMC).
Setting [4] is: dose: 16.0 mg/kg/injection, schedule: Q01DX010 (ip), vehicle: saline.
The mark [5] stands for this setting: dose: 125.0 mg/kg/injection, schedule: Q01DX010 (ip), vehicle: saline.
Where [6] appears, read: dose: 32.0 mg/kg/injection, schedule: Q01DX010 (ip), vehicle: saline.
[7] abbreviates: dose: 64.0 mg/kg/injection, schedule: Q01DX010 (ip), vehicle: saline.
Setting [8] is: dose: 0.5 mg/kg/injection, schedule: Q01DX010 (ip), vehicle: saline.

The list does not hold the whole screen: it gathers tests that were run many times, whatever their T/C, doses with no T/C, and many T/C values between a quarter and a half above the control. Further doses and runs are listed elsewhere. T/C is the treated group as % of the vehicle group. Some entries give survivors of the animals treated and no T/C: the source holds a T/C of zero for them, seemingly a mark for toxic or unscored doses. Some doses without a T/C left all or most animals alive at the check, yet need not have been tolerated: survival well below the control is almost never listed, so the zero probably covers shortened survival too. Counts of survivors are from the toxicity check (mostly the fifth day) where no day follows; animals may have died later. Schedule codes are those of the source, read here as Q, the interval in days (D) or hours (H), X, the number of doses. Some schedule codes hold Z or #, which are not explained here. For survival time, the PubChem record calls one and a half times the control and up active, and a quarter to a half above the control has no call in these data; cut-offs in other NCI protocols can differ. Some T/C values carry the count of animals alive at the toxicity check (mostly the fifth day); without a count, all were alive then. Some doses were run more than once; their values stand side by side, smallest first.

As for `CN(C)CC(=O)c1ccc(O)c(O)c1`, the T/C is 131 % of control (dose: 31.25 mg/kg/injection, schedule: Q01DX Z (ip), vehicle: saline); 131 % of control (dose: 62.5 mg/kg/injection, schedule: Q01DX Z (ip), vehicle: saline); 134 % of control (dose: 125.0 mg/kg/injection, schedule: Q01DX Z (ip), vehicle: saline); 133 % of control (dose: 200.0 mg/kg/injection, schedule: Q01DX010 (ip), vehicle: saline); 148 % of control (dose: 250.0 mg/kg/injection, schedule: Q01DX Z (ip), vehicle: saline); 127 % of control (dose: 300.0 mg/kg/injection, schedule: Q01DX010 (ip), vehicle: saline). Besides, the T/C (dose: 450.0 mg/kg/injection, schedule: Q01DX010 (ip), vehicle: saline) was 133 % of control. Besides, for the setting “dose: 1000.0 mg/kg/injection, schedule: Q01DX Z (ip), vehicle: saline”, the survivor count was 0 of 6.
`O=[n+]1c2c(n([O-])c3ccccc31)-c1cccc3cccc-2c13`: where the note is “dose: 25.0 mg/kg/injection, schedule: Q01DX010 (ip), vehicle: saline”, the survivor count was 6 of 6.
Regarding `O=c1[nH]c(=O)n(C2CC(O)C(CO)O2)cc1Br` (centres undefined), the survivor count is 5 of 6 (dose: 16.0 mg/kg/injection, schedule: Q01DX Z (ip), vehicle: carboxymethylcellulose (CMC)); 6 of 6 under setting [1]; 6 of 6 under setting [2]; 6 of 6 (dose: 250.0 mg/kg/injection, schedule: Q01DX Z (ip), vehicle: carboxymethylcellulose (CMC)); 6 of 6 (dose: 500.0 mg/kg/injection, schedule: Q01DX Z (ip), vehicle: carboxymethylcellulose (CMC)).
For `O=c1[nH]c(=O)n(C2CC(O)C(CO)O2)cc1F` (centres undefined), the T/C (dose: 40.0 mg/kg/injection, schedule: Q01DX010 (ip), vehicle: saline) is 131 % of control and the T/C under setting [3] is 134 % of control.
Regarding `Cn1c(N)nc2nc[nH]c2c1=S`, the survivor count reads like this: (dose: 1.6 mg/kg/injection, schedule: Q01DX Z (ip), vehicle: carboxymethylcellulose (CMC)) 6 of 6; (dose: 6.3 mg/kg/injection, schedule: Q01DX Z (ip), vehicle: carboxymethylcellulose (CMC)) 6 of 6.
Take `CS(=O)(=O)OCCN(CCOS(C)(=O)=O)c1ccc(N=O)cc1`: the T/C (dose: 1.0 mg/kg/injection, schedule: Q01DX010 (ip), vehicle: saline) was 131 % of control. The survivor count was 6 of 6 (dose: 4.0 mg/kg/injection, schedule: Q01DX010 (ip), vehicle: saline); 5 of 6 (dose: 8.0 mg/kg/injection, schedule: Q01DX010 (ip), vehicle: saline); 2 of 6 under setting [4].
Turning to `CC(=O)Nc1ccc(/C=N/Nc2ccc([N+](=O)[O-])cn2)cc1`, the survivor count under setting [5] is reported as 6 of 6.
`S=c1nc[nH]c2nc[nH]c12`: the survivor count (dose: 5.0 mg/kg/injection, schedule: Q01DX010 (ip), vehicle: alkali diluted with saline) was 5 of 6 and the survivor count (dose: 10.0 mg/kg/injection, schedule: Q01DX010 (ip), vehicle: alkali diluted with saline) is listed as 6 of 6. Moreover, the T/C (dose: 100.0 mg/kg/injection, schedule: Q01DX Z (ip), vehicle: other) was 126 % of control.
With `Nc1nc(SCc2ccccc2)c2[nH]cnc2n1`, the survivor count is given as 6 of 6 (dose: 9.4 mg/kg/injection, schedule: Q01DX Z (ip), vehicle: carboxymethylcellulose (CMC)); 6 of 6 under setting [4]; 6 of 6 under setting [6]; 6 of 6 (dose: 37.5 mg/kg/injection, schedule: Q01DX Z (ip), vehicle: carboxymethylcellulose (CMC)); 6 of 6 under setting [7]; 5 of 6 (dose: 75.0 mg/kg/injection, schedule: Q01DX Z (ip), vehicle: carboxymethylcellulose (CMC)).
On to `O=c1[nH]cc(F)c(=O)[nH]1`, for which, where the note is “dose: 10.0 mg/kg/injection, schedule: Q01DX010 (ip), vehicle: saline”, the T/C was 130 and 137 % of control.
On to `CC[C@]1(O)C[C@H]2CN(CCc3c([nH]c4ccccc34)[C@@](C(=O)OC)(c3cc4c(cc3OC)N(C=O)[C@H]3[C@@](O)(C(=O)OC)[C@H](OC(C)=O)[C@]5(CC)C=CCN6CC[C@]43[C@@H]65)C2)C1`, for which the T/C is, setting by setting: (dose: 0.03 mg/kg/injection, schedule: Q01DX010 (ip), vehicle: saline) 110, 119, 139, 181 % of control [5 of 6 alive]; (dose: 0.06 mg/kg/injection, schedule: Q01DX010 (ip), vehicle: saline) 125, 131, 140, 166 % of control; (dose: 0.12 mg/kg/injection, schedule: Q01DX010 (ip), vehicle: saline) 154, 160, 166, 178 % of control; (dose: 0.12 mg/kg/injection, schedule: Q01DX Z (ip), vehicle: water) 125 % of control; (dose: 0.25 mg/kg/injection, schedule: Q01DX010 (ip), vehicle: saline) 113, 116, 144, 177 % of control; (dose: 0.25 mg/kg/injection, schedule: Q01DX Z (ip), vehicle: water) 125 % of control. In addition, under setting [8], the T/C is 91, 93 [4 of 6 alive], 111 % of control [5 of 6 alive]. Further, the survivor count is, setting by setting: under setting [8], 4 of 6; (dose: 1.0 mg/kg/injection, schedule: Q01DX Z (ip), vehicle: water) 2 of 6.
For `C[C@]12CCC(=O)C[C@H]1CC[C@@H]1[C@@H]2CC[C@@]2(C)[C@H]1CC[C@]2(C)O`, the survivor count (dose: 125.0 mg/kg/injection, schedule: Q01DX Z (sc), vehicle: steroid suspending solution) is listed as 6 of 6.
For the compound `N[C@@H](Cc1ccc(N(CCCl)CCCl)cc1)C(=O)O`, where the note is “dose: 0.31 mg/kg/injection, schedule: Q01DX Z (ip), vehicle: saline”, the T/C was 125 % of control. The survivor count (dose: 20.0 mg/kg/injection, schedule: Q01DX Z (ip), vehicle: saline) is reported as 6 of 6.
For the compound `CCn1cnc2c(=S)nc[nH]c21`, the survivor count (dose: 7.8 mg/kg/injection, schedule: Q01DX Z (ip), vehicle: carboxymethylcellulose (CMC)) is 6 of 6; the survivor count (dose: 15.6 mg/kg/injection, schedule: Q01DX010 (ip), vehicle: saline) is listed as 6 of 6; the survivor count (dose: 31.3 mg/kg/injection, schedule: Q01DX010 (ip), vehicle: saline) is 6 of 6; the survivor count (dose: 62.5 mg/kg/injection, schedule: Q01DX010 (ip), vehicle: saline) was 6 of 6; the survivor count under setting [5] was 5 of 6; the survivor count under setting [2] is reported as 6 of 6.
As to `Nc1nc(F)nc2c1ncn2C1OC(CO)C(O)C1O` (centres undefined), the T/C (dose: 250.0 micrograms/kg/injection, schedule: Q01DX010 (ip), vehicle: saline) is 133 % of control.
On to `C[n+]1c2ccccc2nc2c(N)cc(N)cc21`, for which the survivor count under setting [3] is 2 of 6.
`c1ccc(CNc2ncnc3[nH]ncc23)cc1`: the survivor count (dose: 15.6 mg/kg/injection, schedule: Q01DX Z (ip), vehicle: carboxymethylcellulose (CMC)) is 6 of 6; the survivor count (dose: 31.2 mg/kg/injection, schedule: Q01DX Z (ip), vehicle: carboxymethylcellulose (CMC)) is 5 of 6; the survivor count under setting [1] is on record as 0 of 6. For the same compound, the T/C under setting [6] is 135 % of control; the T/C under setting [7] was 125 and 135 % of control.
For the compound `C[C@H](N)C(=O)N[C@@H]1[C@H]2C(=C(O)C[C@@H](O)[C@@H]2O)C(=O)O[C@@H]1C`, the T/C (dose: 1200.0 mg/kg/injection, schedule: Q01DX010 (ip), vehicle: saline) is 131 % of control.
